Laboratory results from the supplement of paper PMC10849652.
This is one part of the list. Residues, ends and D or L forms follow the SMILES beside them. *: point of attachment. Cbz = O=C(OCc1ccccc1)*

The chains behind the UniProt entries cited, without tags or fusion partners. Where a name states a change or a piece, a line headed by the entry shows the natural chain unless it says otherwise.
UniProt Q6P9B6: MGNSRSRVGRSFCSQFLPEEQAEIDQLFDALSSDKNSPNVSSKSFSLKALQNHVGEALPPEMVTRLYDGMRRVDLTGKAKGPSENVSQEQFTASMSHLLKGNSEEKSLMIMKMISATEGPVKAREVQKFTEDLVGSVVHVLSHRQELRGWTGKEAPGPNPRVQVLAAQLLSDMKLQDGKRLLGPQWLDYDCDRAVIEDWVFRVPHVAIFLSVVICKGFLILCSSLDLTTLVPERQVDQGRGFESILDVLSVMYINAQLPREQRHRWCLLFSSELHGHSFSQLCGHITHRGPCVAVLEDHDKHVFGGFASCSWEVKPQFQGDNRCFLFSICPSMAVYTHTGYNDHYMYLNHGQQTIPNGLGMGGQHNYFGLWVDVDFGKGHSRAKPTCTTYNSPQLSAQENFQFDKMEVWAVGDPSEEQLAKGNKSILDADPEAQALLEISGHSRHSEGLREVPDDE
UniProt Q9NVC6: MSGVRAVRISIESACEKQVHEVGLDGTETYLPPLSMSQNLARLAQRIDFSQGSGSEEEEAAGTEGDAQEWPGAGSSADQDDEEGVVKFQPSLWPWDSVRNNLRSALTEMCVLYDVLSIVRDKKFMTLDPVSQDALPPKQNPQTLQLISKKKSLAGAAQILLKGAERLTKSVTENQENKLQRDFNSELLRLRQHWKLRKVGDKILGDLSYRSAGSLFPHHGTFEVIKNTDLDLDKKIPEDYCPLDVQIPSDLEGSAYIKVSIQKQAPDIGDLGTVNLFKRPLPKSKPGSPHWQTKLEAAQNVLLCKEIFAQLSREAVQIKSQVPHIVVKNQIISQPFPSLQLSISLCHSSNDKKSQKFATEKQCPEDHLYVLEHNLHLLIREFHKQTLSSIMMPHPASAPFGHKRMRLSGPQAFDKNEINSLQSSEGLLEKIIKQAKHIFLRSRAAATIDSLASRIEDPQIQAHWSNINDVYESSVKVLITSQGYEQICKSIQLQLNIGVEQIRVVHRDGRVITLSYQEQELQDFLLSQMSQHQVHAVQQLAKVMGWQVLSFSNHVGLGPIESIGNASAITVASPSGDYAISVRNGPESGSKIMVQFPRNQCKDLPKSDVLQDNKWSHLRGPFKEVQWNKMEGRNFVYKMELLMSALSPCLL
UniProt Q93074, whole entry, looked up: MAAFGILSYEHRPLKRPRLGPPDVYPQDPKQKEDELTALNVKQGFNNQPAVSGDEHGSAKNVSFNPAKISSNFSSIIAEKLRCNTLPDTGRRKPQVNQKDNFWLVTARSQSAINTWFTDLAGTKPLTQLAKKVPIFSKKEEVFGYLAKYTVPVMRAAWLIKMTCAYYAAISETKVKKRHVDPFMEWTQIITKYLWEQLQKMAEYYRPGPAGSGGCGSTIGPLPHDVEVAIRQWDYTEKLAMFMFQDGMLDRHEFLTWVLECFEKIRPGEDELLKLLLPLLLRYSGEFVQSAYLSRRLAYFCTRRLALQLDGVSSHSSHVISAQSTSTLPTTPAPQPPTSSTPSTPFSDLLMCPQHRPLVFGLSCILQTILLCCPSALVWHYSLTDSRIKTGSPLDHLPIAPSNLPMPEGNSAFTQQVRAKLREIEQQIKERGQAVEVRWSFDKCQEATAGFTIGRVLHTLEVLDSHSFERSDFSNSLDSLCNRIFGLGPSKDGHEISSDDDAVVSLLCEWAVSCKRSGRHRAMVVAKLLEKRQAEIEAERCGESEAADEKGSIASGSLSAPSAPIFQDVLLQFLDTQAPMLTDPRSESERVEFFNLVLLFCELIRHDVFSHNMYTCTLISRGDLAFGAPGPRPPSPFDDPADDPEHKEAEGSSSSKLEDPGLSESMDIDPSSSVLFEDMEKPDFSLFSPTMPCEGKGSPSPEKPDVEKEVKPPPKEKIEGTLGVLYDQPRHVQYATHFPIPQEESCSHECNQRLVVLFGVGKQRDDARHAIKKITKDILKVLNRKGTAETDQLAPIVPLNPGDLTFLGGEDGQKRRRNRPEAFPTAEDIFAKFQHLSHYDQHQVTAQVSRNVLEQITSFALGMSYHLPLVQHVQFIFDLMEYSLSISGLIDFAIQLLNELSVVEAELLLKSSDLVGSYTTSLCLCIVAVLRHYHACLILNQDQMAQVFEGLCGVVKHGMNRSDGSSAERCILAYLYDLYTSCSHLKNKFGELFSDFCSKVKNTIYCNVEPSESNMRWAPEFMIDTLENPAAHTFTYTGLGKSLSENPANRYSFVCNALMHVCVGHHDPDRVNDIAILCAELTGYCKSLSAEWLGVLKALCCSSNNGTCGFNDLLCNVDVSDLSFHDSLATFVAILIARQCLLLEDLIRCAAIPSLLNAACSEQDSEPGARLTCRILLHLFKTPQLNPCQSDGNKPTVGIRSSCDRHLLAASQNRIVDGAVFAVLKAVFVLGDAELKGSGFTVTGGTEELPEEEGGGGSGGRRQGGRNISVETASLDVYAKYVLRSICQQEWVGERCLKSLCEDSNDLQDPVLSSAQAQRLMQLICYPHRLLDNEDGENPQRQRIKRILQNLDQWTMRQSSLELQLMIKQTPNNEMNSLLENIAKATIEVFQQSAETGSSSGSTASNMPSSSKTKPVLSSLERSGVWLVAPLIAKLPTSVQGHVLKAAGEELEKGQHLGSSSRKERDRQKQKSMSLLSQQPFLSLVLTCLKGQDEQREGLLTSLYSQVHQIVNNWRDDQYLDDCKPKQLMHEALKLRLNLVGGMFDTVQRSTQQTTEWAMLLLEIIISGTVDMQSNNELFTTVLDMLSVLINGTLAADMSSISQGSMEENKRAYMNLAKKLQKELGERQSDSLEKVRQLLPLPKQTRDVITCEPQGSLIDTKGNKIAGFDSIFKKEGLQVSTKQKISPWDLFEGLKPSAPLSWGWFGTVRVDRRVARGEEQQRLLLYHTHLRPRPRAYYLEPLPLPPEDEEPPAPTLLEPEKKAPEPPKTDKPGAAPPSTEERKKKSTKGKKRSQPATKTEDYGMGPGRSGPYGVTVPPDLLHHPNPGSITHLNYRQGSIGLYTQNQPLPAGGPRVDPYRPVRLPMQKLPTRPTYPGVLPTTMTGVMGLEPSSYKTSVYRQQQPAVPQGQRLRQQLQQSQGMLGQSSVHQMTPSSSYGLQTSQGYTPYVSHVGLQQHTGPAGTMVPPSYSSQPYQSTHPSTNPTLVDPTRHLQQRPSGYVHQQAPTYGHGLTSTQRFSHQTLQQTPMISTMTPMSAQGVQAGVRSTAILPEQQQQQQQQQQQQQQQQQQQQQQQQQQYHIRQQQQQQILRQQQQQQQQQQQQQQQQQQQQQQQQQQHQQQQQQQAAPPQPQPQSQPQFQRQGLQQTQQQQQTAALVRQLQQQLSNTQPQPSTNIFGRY
UniProt O75586: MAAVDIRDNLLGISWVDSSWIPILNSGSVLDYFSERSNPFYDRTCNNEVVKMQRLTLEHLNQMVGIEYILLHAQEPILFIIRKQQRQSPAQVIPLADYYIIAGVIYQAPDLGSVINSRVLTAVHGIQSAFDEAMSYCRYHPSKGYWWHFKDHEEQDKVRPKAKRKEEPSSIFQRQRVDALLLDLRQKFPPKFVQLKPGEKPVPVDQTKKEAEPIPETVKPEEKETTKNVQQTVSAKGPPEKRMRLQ
UniProt Q08431: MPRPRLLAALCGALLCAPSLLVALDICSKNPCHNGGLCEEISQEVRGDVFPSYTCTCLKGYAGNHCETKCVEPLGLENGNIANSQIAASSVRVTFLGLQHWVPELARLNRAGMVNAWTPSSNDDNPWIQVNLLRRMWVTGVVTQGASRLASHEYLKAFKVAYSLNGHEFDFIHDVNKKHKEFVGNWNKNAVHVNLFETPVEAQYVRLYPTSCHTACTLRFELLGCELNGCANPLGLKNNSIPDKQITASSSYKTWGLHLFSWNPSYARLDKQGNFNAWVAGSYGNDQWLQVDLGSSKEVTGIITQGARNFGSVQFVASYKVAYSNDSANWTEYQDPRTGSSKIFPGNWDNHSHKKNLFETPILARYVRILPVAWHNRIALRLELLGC
UniProt Q71SY5: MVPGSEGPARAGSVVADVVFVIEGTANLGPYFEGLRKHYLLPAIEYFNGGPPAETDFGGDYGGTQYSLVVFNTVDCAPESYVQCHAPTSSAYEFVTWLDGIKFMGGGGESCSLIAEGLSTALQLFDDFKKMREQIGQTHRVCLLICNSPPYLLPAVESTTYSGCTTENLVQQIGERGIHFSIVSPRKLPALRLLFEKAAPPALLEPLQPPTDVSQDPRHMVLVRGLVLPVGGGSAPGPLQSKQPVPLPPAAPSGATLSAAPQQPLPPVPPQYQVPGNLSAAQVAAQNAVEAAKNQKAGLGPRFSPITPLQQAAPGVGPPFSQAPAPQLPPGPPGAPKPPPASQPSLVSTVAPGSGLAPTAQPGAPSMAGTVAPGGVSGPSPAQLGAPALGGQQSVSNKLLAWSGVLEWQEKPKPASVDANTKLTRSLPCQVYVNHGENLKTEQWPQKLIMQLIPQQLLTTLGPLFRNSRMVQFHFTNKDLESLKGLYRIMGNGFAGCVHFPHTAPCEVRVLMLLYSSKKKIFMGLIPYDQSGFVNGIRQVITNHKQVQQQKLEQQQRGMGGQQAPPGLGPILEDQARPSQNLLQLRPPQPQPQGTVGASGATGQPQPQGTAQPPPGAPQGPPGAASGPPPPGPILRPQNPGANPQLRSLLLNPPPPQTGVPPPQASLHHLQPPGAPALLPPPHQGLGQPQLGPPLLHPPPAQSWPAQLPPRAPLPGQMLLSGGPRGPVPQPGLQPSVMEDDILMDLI
UniProt A4D2B0: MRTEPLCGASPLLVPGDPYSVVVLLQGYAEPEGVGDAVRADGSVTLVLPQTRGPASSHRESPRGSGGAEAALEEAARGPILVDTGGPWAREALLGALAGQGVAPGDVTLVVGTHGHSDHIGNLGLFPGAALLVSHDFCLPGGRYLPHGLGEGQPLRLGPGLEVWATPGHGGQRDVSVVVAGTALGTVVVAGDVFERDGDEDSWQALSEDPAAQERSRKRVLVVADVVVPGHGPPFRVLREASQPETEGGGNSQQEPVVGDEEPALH
UniProt Q86YT6, whole entry, looked up: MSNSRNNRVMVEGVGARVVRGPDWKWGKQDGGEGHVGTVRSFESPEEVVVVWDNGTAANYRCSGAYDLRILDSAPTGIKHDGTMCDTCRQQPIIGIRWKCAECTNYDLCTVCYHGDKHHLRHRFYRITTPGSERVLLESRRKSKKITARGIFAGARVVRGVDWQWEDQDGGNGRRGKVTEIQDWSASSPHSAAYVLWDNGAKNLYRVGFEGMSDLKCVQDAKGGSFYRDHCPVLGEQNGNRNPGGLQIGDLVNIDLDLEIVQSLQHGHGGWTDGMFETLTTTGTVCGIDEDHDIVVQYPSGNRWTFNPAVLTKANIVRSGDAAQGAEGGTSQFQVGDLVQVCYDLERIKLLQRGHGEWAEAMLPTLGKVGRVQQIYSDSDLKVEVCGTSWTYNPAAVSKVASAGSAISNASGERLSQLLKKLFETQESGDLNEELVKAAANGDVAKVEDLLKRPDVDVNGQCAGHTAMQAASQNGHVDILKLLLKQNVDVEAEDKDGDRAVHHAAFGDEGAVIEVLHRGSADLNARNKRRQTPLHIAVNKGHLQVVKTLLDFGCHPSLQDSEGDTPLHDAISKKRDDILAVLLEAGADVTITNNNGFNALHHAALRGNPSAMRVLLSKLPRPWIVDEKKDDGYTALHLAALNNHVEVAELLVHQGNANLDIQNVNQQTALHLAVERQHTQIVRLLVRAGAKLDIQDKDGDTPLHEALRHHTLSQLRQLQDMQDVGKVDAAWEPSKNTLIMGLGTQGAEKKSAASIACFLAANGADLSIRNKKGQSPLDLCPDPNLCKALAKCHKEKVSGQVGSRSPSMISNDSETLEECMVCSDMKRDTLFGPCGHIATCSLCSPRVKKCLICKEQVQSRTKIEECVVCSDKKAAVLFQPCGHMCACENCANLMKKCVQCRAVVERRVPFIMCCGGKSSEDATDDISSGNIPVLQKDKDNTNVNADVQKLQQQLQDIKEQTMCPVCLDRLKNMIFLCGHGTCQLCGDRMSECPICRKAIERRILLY

Legend:
Test in all cases: log2 fold change, soluble protein after heating vs DMSO (PISA); higher = thermal stabilisation; K562 cells, 10 uM, 30 min; active = over 0.2 and 3.5 SD of the protein, either way, in both replicates (recomputed)
IRAK-1-4 Inhibitor I = compound: C1COCCN1CCN2C3=CC=CC=C3N=C2NC(=O)C4=CC(=CC=C4)[N+](=O)[O-] [IRAK-1-4 Inhibitor I]
Outline: (§1)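 Quantification of soluble protein used TMTpro 16plex LC-MS/MS, with channel sums equalised. Samples were the supernatant after 21,000xg for 90 min of pooled aliquots from K562 cells (2×10^6 cells/mL) treated with 10 μM compound for 30 min, heated for 3 min over 48°C-58°C, and extracted in PBS with 0.5% NP-40 at 4°C. Values, from duplicates, describe thermal stability against control samples on a log2 fold-change scale.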

ibrutinib = compound: C=CC(=O)N1CCC[C@@H](n2nc(-c3ccc(Oc4ccccc4)cc3)c3c(N)ncnc32)C1 [ibrutinib]
Outline: as §1

[1] = compound: CC(=O)c1cnc2ccc(-c3cc(Cl)c(O)c(Cl)c3)nc2c1N[C@H]1CC[C@H](CN(C)C)CC1
Outline: as §1

ralimetinib = compound: CC(C)(C)Cn1c(N)nc2ccc(-c3[nH]c(C(C)(C)C)nc3-c3ccc(F)cc3)nc21 [ralimetinib]
Outline: as §1

[2] = compound: CC(C)(O)CC(=O)NCCn1ccc2ncnc(Nc3ccc(Oc4cccc(C(F)(F)F)c4)c(Cl)c3)c21
Outline: as §1

[3] = compound: CC(C)C1=C2N=C(C=C(N2N=C1)NCC3=CC=CC=C3)NCCCCCCN
Outline: as §1

[4] = compound: CC(C)C[C@@H](C=O)NC(=O)[C@H](CC(C)C)NC(=O)[C@H](CC(C)C)NC(=O)OCc1ccccc1
Outline: as §1

pinometostat = compound: CC(C)N(C[C@H]1O[C@@H](n2cnc3c(N)ncnc32)[C@H](O)[C@@H]1O)[C@H]1C[C@@H](CCc2nc3cc(C(C)(C)C)ccc3[nH]2)C1 [pinometostat]
Outline: as §1

[5] = compound: CC1=C(C2=C(C=C1)C(=O)C3=CC=CC=C3N2CCCN)C
Outline: as §1

[6] = compound: CC1=C(C=C(C=C1)NC(=O)C2=CC(=CC=C2)C(C)(C)C#N)NC3=CC4=C(C=C3)N=CN(C4=O)C
Outline: as §1

[7] = compound: CC1=C(C=C(C=C1)NC(=O)C2=CC(=CC=C2)N(C)C)NC(=O)C3=CC=C(C=C3)O
Outline: as §1

[8] = compound: CC1=CC=C(C=C1)SC2=C3C=C(SC3=CN=C2)C(=O)N
Outline: as §1

[9] = compound: CC1=NC(=CC=C1)C2=C(N=C(N2)C(C)(C)C)C3=CC4=NC=CN=C4C=C3
Outline: as §1

Nexturastat A = compound: CCCCN(Cc1ccc(C(=O)NO)cc1)C(=O)Nc1ccccc1 [Nexturastat A]
Outline: as §1

vemurafenib = compound: CCCS(=O)(=O)Nc1ccc(F)c(C(=O)c2c[nH]c3ncc(-c4ccc(Cl)cc4)cc23)c1F [vemurafenib]
Outline: as §1

[10] = compound: CCCS(=O)(=O)Nc1ccc(F)c(C(=O)c2c[nH]c3ncc(Cl)cc23)c1F
Outline: as §1

[11] = compound: CCCc1cc(C)[nH]c(=O)c1CNC(=O)c1cc(-c2ccnc(N3CCN(C)CC3)c2)cc2c1cnn2C(C)C
Outline: as §1

givinostat = compound: CCN(CC)Cc1ccc2cc(COC(=O)Nc3ccc(C(=O)NO)cc3)ccc2c1 [givinostat]
Outline: as §1

barasertib = compound: CCN(CCCOc1ccc2c(Nc3cc(CC(=O)Nc4cccc(F)c4)[nH]n3)ncnc2c1)CCOP(=O)(O)O [barasertib]
Outline: as §1

[12] = compound: CC1=C(C(CC(=O)N1)C2=CC=C(C=C2)C(F)(F)F)C(=O)NC3=C(C=C4C(=C3)C=NN4)F
Outline: as §1

Measured: log2 fold change

MEAK7 (UniProt Q6P9B6)
inactive: IRAK-1-4 Inhibitor I 0.015 | ibrutinib -0.041 | [1] -0.093 | ralimetinib 0.078 | [2] -0.018 | [3] -0.2 | [4] 0.079 | pinometostat 0.037 | [5] 0.033 | [6] 0.081 | [7] 0.053 | [8] -0.005 | [9] 0.015 | Nexturastat A -0.006 | vemurafenib 0.012 | [10] 0.067 | [11] -0.055 | givinostat 0.085 | barasertib 0.025

MED17 (UniProt Q9NVC6)
active: [1] -0.371
inactive: IRAK-1-4 Inhibitor I -0.076 | ralimetinib 0.12 | [2] -0.022 | [3] -0.209 | [4] 0.119 | pinometostat 0.124 | [5] 0.182 | [6] 0.042 | [7] -0.03 | [8] -0.186 | [9] 0.005 | Nexturastat A 0.052 | vemurafenib 0.071 | [10] -0.168 | [11] 0.025 | givinostat -0.014

MED12 isoform 2 (UniProt Q93074)
active: [1] -0.747
inactive: IRAK-1-4 Inhibitor I -0.057 | ibrutinib -0.098 | ralimetinib -0.05 | [2] -0.024 | [3] -0.291 | [4] -0.005 | pinometostat 0.251 | [5] -0.04 | [6] 0.034 | [7] -0.202 | [8] -0.015 | [9] -0.09 | Nexturastat A 0.012 | [10] 0.071 | [11] 0.023 | givinostat 0.106 | barasertib -0.135

MED6 (UniProt O75586)
inactive: IRAK-1-4 Inhibitor I -0.165 | ibrutinib -0.033 | [2] 0.278 | [3] -0.479 | pinometostat 0.087 | [12] 0.038 | [6] -0.279 | [9] -0.023 | Nexturastat A 0.008 | vemurafenib 0.289 | [11] -0.224 | givinostat -0.003 | barasertib -0.029

MFHAS1 (UniProt Q9Y4C4)
inactive: IRAK-1-4 Inhibitor I -0.103 | ibrutinib 0.207 | [1] 0.074 | ralimetinib 0.124 | [4] -0.072 | pinometostat -0.033 | [5] 0.135 | [7] 0.092 | [9] -0.194 | vemurafenib -0.063 | [11] -0.593 | barasertib -0.092

MFGE8 (UniProt Q08431)
inactive: IRAK-1-4 Inhibitor I -0.058 | ibrutinib 0.016 | [1] 0.269 | ralimetinib 0.152 | [2] 0.105 | [3] 0 | [4] 0.191 | pinometostat 0.12 | [5] -0.038 | [6] 0.034 | [7] -0.027 | [8] -0.122 | [9] -0.061 | Nexturastat A 0.161 | vemurafenib -0.028 | [10] -0.124 | [11] 0.019 | givinostat -0.004 | barasertib -0.057

MED25 isoform 3 (UniProt Q71SY5)
inactive: IRAK-1-4 Inhibitor I -0.087 | ibrutinib 0.039 | [1] -0.086 | ralimetinib -0.099 | [3] 0.016 | [4] -0.061 | pinometostat 0.173 | [5] 0.053 | [6] -0.033 | [7] 0.022 | [8] -0.012 | [9] -0.014 | vemurafenib 0.141 | [10] 0.05 | [11] -0.083 | givinostat 0.105 | barasertib 0.019

MBLAC1 (UniProt A4D2B0)
inactive: IRAK-1-4 Inhibitor I 0.371 | ibrutinib -0.03 | [1] 0.001 | ralimetinib -0.074 | [3] 0.126 | [4] -0.011 | pinometostat -0.163 | [7] 0.079 | [8] -0.093 | [9] -0.098 | vemurafenib 0.029 | [10] -0.008 | [11] 0.059 | givinostat -0.04 | barasertib -0.016

MDN1 (UniProt Q9NU22)
inactive: IRAK-1-4 Inhibitor I -0.011 | ibrutinib -0.046 | [1] -0.126 | ralimetinib -0.015 | [2] -0.24 | [3] -0.22 | [4] -0.029 | pinometostat -0.009 | [5] 0.005 | [6] -0.023 | [7] -0.021 | [8] 0.034 | [9] 0.061 | Nexturastat A -0.009 | vemurafenib 0.02 | [10] 0.074 | [11] 0.027 | givinostat 0.083 | barasertib 0.047

MIB1 (UniProt Q86YT6)
inactive: IRAK-1-4 Inhibitor I -0.254 | ibrutinib -0.232 | [1] -0.094 | ralimetinib 0.092 | [2] -0.097 | [3] -0.082 | [4] 0.156 | pinometostat 0.142 | [5] 0.076 | [6] -0.125 | [7] -0.023 | [9] -0.178 | Nexturastat A 0.27 | vemurafenib 0.013 | [11] 0.339 | givinostat 0.198 | barasertib -0.022

2 successive entries out of the list so far:
MDN1 (UniProt Q9NU22)
inactive: IRAK-1-4 Inhibitor I -0.011 | ibrutinib -0.046 | [1] -0.126 | ralimetinib -0.015 | [2] -0.24 | [3] -0.22 | [4] -0.029 | pinometostat -0.009 | [5] 0.005 | [6] -0.023 | [7] -0.021 | [8] 0.034 | [9] 0.061 | Nexturastat A -0.009 | vemurafenib 0.02 | [10] 0.074 | [11] 0.027 | givinostat 0.083 | barasertib 0.047

MIB1 (UniProt Q86YT6)
inactive: IRAK-1-4 Inhibitor I -0.254 | ibrutinib -0.232 | [1] -0.094 | ralimetinib 0.092 | [2] -0.097 | [3] -0.082 | [4] 0.156 | pinometostat 0.142 | [5] 0.076 | [6] -0.125 | [7] -0.023 | [9] -0.178 | Nexturastat A 0.27 | vemurafenib 0.013 | [11] 0.339 | givinostat 0.198 | barasertib -0.022
